In the experiment the target is PCNA (human (endogenous in HeLa)) (UniProt P12004). Description: proximity ligation; Duolink PLA on fixed cells with antibodies against PCNA and N-WASp or WASp.

Protein sequences, listed by entry. Tags and fused reporters are not part of them.
UniProt P12004: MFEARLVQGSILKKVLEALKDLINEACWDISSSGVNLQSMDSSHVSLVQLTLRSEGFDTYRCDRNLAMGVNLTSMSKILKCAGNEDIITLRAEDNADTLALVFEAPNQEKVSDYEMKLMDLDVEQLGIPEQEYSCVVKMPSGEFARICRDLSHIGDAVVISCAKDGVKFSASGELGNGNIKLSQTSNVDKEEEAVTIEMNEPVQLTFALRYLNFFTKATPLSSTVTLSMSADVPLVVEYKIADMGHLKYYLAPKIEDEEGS
UniProt O00401: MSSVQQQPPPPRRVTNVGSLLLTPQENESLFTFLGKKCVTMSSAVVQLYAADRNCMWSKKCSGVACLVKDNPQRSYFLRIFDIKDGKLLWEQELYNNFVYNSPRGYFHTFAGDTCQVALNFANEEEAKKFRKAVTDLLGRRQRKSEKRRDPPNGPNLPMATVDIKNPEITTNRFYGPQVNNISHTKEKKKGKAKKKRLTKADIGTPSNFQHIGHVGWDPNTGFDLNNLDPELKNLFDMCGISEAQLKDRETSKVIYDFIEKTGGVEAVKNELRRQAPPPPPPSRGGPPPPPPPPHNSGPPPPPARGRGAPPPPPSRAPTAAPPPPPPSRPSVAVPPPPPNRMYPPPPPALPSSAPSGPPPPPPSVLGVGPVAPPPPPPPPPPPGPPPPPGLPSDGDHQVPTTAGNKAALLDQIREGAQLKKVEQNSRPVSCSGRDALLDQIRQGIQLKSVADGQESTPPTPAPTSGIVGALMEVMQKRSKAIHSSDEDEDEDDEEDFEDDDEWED
UniProt P42768: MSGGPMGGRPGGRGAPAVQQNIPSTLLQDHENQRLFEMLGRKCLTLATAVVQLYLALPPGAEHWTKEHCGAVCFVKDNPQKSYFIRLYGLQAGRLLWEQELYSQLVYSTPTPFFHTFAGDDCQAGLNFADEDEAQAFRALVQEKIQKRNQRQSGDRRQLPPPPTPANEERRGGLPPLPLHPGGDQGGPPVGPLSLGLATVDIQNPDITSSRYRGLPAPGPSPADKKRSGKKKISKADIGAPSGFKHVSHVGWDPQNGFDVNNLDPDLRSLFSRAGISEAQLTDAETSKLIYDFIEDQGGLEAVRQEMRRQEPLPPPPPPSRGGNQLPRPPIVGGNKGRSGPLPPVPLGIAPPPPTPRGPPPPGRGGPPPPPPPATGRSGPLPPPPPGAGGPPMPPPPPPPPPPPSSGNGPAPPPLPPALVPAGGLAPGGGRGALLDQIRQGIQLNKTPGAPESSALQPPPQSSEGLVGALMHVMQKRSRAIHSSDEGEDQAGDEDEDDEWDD

Results are given in words; binding and its absence hold for the method and conditions named. Binding seen in cells or lysates may run through a third protein. Some binding calls cover weakened binding; strength is not graded here.

Experimental findings from PMC10325910 are described below.

As for N-WASp (from UniProt O00401 1-505), the binding result was “binds”. Regarding “Wiskott-Aldrich syndrome protein (WASp) (from UniProt P42768 1-502)”, the binding result is on record as “binds”.
